No constants are given. Whether binding was seen depends on the method and setting. Binding seen in cells or lysates may run through a third protein. Here binding means that the protein was enriched with, or labelled near, the bait; the list need not be complete.
Target: SNAP/FLAG-hGlp1r^WT (human) (UniProt P43220)
Assay: affinity purification with mass spectrometry

Chains of the proteins cited; added tags and fusions are not shown. Residues count along the entry.
UniProt P43220, residues 24-463: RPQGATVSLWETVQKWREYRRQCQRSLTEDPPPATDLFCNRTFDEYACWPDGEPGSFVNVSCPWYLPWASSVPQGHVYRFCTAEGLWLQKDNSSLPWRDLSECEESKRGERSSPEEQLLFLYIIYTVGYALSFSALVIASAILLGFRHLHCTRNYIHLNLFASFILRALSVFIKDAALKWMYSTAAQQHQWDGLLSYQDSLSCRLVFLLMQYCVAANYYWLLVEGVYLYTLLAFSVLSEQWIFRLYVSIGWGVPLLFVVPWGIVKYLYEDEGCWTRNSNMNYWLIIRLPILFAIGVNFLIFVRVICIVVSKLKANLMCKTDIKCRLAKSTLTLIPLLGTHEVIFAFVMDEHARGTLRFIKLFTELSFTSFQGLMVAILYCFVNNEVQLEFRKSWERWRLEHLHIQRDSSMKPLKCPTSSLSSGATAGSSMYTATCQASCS
UniProt Q9Z269: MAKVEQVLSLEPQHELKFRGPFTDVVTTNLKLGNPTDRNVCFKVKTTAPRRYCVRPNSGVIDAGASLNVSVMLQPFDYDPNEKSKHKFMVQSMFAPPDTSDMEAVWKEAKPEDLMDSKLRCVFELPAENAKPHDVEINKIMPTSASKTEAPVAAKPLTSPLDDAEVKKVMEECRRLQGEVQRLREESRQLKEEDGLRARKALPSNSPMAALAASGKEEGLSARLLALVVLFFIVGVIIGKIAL
UniProt P0C6C0: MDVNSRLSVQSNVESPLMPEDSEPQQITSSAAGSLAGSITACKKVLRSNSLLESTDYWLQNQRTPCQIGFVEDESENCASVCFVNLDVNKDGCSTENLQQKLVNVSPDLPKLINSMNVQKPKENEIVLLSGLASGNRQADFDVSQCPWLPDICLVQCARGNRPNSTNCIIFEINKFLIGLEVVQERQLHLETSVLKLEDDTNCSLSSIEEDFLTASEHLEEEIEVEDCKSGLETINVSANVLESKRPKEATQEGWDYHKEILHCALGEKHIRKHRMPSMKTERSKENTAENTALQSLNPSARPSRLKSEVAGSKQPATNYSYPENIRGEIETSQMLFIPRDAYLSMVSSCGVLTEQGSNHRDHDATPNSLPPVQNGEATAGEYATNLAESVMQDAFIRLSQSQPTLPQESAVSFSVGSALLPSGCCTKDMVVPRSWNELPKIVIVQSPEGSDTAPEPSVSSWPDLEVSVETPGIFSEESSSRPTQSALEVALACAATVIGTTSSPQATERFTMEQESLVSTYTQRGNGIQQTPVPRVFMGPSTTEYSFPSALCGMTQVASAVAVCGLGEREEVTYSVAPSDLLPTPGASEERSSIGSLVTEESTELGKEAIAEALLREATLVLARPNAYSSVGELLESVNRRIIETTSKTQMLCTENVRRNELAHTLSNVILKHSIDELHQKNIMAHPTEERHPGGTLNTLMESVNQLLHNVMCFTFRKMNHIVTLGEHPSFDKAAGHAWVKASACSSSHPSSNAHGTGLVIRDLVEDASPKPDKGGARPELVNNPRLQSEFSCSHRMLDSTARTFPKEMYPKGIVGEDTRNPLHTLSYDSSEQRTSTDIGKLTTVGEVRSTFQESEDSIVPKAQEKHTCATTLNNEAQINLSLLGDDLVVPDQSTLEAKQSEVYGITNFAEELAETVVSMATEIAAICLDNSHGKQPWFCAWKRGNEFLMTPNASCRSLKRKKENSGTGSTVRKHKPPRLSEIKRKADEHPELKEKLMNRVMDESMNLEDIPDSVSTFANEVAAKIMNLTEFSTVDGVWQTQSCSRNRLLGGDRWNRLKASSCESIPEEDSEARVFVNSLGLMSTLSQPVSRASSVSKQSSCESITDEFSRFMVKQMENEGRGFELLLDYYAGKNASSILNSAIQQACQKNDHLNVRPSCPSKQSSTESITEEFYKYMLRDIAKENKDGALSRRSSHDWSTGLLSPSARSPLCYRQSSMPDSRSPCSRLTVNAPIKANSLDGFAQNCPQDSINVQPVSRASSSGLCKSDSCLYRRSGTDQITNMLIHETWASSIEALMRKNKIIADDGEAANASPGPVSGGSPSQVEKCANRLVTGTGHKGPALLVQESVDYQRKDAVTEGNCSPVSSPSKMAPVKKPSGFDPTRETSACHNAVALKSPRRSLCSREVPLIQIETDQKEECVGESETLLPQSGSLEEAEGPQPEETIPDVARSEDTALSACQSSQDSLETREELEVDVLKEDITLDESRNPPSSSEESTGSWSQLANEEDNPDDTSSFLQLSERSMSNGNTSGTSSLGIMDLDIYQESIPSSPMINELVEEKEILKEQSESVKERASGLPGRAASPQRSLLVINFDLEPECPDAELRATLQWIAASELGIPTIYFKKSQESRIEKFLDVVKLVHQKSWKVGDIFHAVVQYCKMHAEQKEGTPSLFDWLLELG

binding	Substance
binds	ER membrane contact site (MCS) tether VAP-B (from UniProt Q9Z269 1-243)
binds	A-kinase anchoring protein (AKAP) SPHKAP (from UniProt P0C6C0 1-1683)

— publication doi:10.1101/2024.10.19.619191
